Source: US20240117030A1
Results are given in words; binding and its absence hold for the method and conditions named. Binding calls can cover weak binding; strength is not graded here.

By UniProt entry, the sequences of proteins in these tests, tags left out. Where a name states a change or a piece, a line headed by the entry shows the natural chain unless it says otherwise.
UniProt P35225: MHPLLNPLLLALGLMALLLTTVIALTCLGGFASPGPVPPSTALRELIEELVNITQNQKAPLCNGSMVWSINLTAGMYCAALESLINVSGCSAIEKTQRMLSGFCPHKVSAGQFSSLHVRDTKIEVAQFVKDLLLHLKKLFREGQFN

B1: IL13-1306 (antibody, mouse IgG1, V domains shown)
VH: EVKLVESGGDLVKPGGSLKLSCAASGFTFSSYAMSWVRQSPDKRLEWVASISSGDTTYYPDSVKGRFTISRDNARNILYLQMTSLRSEDTAMYYCARLDGYYFGFPYWGQGTLVTVSA
VL: DTVLTQSPASLAVSLGQRATISCKASESVDHSGSSLMHWYQQKPGQSPKLLIYRASNLESGIPARFSGSGSRTDFTLTINPVEADDVATYYCQQSNEDPWTFGGGTKLEIK
B2: IL13-1283 (antibody, human IgG1, kappa, V domains shown)
VH: EVQLVESGGGLVQPGGSLRLSCAASGFTFISYAMSWVRQAPGKGLEWVASISSGGNTYYPDSVKGRFTISRDNAKNSLYLQMNSLRAEDTAVYYCARLDGYYFGFAYWGQGTLVTVSS
VL: DIQMTQSPSSLSASVGDRVTITCKASESVDNYGKSLMHWYQQKPGKAPKLLIYRASNLESGVPSRFSGSGSGTDFTLTISSLQPEDFATYYCQQSNEDPWTFGGGTKVEIKR

Tests used:
human IL-13 (human) [1] = biological target: human IL-13 (human) (UniProt P35225); assay: hybridoma screening, ELISA on human IL-13
human IL-13 (human) [2] = biological target: human IL-13 (human) (UniProt P35225); assay: comparison of bioassays and complex structures

Binder | binding (human IL-13 (human) [1]) | binding (human IL-13 (human) [2])
B1 | binds | 
B2 |  | binds
